Experimental data published in paper PMC9233679.
No constants are given. Whether binding was seen depends on the method and setting. Binding seen in cells or lysates may run through a third protein. Some results given as binding are weak or reduced against the parent protein; the word gives no strength.

Columns and labels:
[1] = target: T1, S100A11 (human (endogenous in BxPC3 and SW1990)) (UniProt P31949); experiment: proximity ligation; Duolink PLA in fixed, permeabilised BxPC3 or SW1990 cells; primary antibodies anti-S100A11 and anti-SMYD3; endogenous proteins
T1 sequence: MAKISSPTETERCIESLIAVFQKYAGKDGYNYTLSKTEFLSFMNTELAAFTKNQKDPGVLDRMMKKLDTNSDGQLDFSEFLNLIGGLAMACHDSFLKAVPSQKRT

[2] = target: T1, S100A11 (human (endogenous in BxPC3 and SW1990)); experiment: co-IP; 3 mg total cellular protein from PDAC cells; lysis buffer 20 mM Tris-HCl, 150 mM NaCl, 2 mM EDTA, 1% Triton X-100; 2 ug S100A11 antibody or IgG overnight at 4 °C, Protein-A/G beads; western blotting

B1: SMYD3 (enzyme, UniProt Q9H7B4 1-428)
chain: MEPLKVEKFATAKRGNGLRAVTPLRPGELLFRSDPLAYTVCKGSRGVVCDRCLLGKEKLMRCSQCRVAKYCSAKCQKKAWPDHKRECKCLKSCKPRYPPDSVRLLGRVVFKLMDGAPSESEKLYSFYDLESNINKLTEDKKEGLRQLVMTFQHFMREEIQDASQLPPAFDLFEAFAKVICNSFTICNAEMQEVGVGLYPSISLLNHSCDPNCSIVFNGPHLLLRAVRDIEVGEELTICYLDMLMTSEERRKQLRDQYCFECDCFRCQTQDKDADMLTGDEQVWKEVQESLKKIEELKAHWKWEQVLAMCQAIISSNSERLPDINIYQLKVLDCAMDACINLGLLEEALFYGTRTMEPYRIFFPGSHPVRGVQVMKVGKLQLHQGMFPQAMKNLRLAFDIMRVTHGREHSLIEDLILLLEECDANIRAS
Which binding [1] does the source give for B1 here?
The binding was “binds”.

And the binding [2]?
The binding was “binds”.
